Laboratory results published in article PMC11828469 (2025).
Numbering of substitutions follows the chain as printed. Results are given in words; binding and its absence hold for the method and conditions named. Some binding calls cover weakened binding; strength is not graded here. Tags and fused reporters may be left off the sequences shown.

The chains behind the UniProt entries cited, without tags or fusion partners.
UniProt P61006: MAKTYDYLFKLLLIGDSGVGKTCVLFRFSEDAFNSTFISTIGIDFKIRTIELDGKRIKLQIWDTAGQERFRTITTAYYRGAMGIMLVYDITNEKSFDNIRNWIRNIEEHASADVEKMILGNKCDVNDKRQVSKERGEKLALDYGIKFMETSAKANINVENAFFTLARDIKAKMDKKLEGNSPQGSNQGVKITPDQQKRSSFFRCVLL
UniProt P62491: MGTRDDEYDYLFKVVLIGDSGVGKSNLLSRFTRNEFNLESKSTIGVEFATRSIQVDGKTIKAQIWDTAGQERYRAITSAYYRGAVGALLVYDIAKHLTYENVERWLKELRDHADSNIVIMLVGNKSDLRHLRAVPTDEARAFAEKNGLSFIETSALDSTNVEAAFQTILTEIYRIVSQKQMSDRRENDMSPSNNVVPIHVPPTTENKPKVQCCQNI

Experiments:
GST–Rabin8-S272E (human) [1] = molecular target: T1, GST–Rabin8-S272E (human) (UniProt Q96QF0); assay: pull-down; 5 μg GST fusion protein on glutathione–Sepharose 4B beads; 2–3 μg purified 6His–Rab8a preloaded with 100 µM GDPβS; RT, 2 h; 50 mM HEPES pH 7.4, 150 mM NaCl, 5 mM MgCl2, 0.1% Triton X-100, 0.1% BSA, 1 mM PMSF; bound Rab8 detected by immunoblotting; both purified
T1 sequence: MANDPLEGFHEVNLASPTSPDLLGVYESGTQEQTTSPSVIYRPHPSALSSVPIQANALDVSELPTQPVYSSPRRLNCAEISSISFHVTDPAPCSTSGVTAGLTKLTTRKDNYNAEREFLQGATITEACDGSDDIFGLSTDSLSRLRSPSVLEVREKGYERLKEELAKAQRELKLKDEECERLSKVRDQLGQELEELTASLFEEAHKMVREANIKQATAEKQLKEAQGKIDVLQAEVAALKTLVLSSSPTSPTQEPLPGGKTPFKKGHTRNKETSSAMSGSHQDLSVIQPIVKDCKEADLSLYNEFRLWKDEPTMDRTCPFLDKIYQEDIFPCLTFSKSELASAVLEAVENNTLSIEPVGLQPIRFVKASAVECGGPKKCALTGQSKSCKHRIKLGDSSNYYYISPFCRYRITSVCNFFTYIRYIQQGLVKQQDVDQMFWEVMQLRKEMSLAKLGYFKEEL

GST–Rabin8-F201A (human) [2] = molecular target: T2, GST–Rabin8-F201A (human) (UniProt Q96QF0); assay: as above
T2 sequence: T1 sequence with F201A, E272S

GST–Rabin8-E192A (human) [3] = molecular target: T3, GST–Rabin8-E192A (human) (UniProt Q96QF0); assay: as above
T3 sequence: T1 sequence with E192A, E272S

[4] = molecular target: T4, GST-Rabin8-T419A/Y423A/L428A triple mutant (human) (UniProt Q96QF0); assay: as above
T4 sequence: T1 sequence with E272S, T419A, Y423A, L428A

GST–Rabin8-WT (human) [5] = molecular target: T5, GST–Rabin8-WT (human) (UniProt Q96QF0); assay: as above
T5 sequence: T1 sequence with E272S

GST–Rabin8-S272A (human) [6] = molecular target: T6, GST–Rabin8-S272A (human) (UniProt Q96QF0); assay: as above
T6 sequence: T1 sequence with E272A

GST–Rabin8-S272E (human) [7] = molecular target: T1, GST–Rabin8-S272E (human); assay: pull-down; 5 μg GST fusion protein on glutathione–Sepharose 4B beads; 2–3 μg purified 6His–Rab11a preloaded with 100 µM GTPγS; RT, 2 h; 50 mM HEPES pH 7.4, 150 mM NaCl, 5 mM MgCl2, 0.1% Triton X-100, 0.1% BSA, 1 mM PMSF; bound Rab11 detected by immunoblotting; both purified
GST–Rabin8-F201A (human) [8] = molecular target: T2, GST–Rabin8-F201A (human); assay: as above
GST–Rabin8-E192A (human) [9] = molecular target: T3, GST–Rabin8-E192A (human); assay: as above
GST–Rabin8-WT (human) [10] = molecular target: T5, GST–Rabin8-WT (human); assay: as above
GST–Rabin8-S272A (human) [11] = molecular target: T6, GST–Rabin8-S272A (human); assay: as above

Measured: binding

6His–Rab8a (from UniProt P61006 1-207)
binds: GST–Rabin8-S272E (human) [1] | GST–Rabin8-F201A (human) [2] | GST–Rabin8-E192A (human) [3] | [4] | GST–Rabin8-WT (human) [5] | GST–Rabin8-S272A (human) [6]

6His–Rab11a (from UniProt P62491 1-216)
binds: GST–Rabin8-S272E (human) [7] | GST–Rabin8-F201A (human) [8] | GST–Rabin8-E192A (human) [9] | GST–Rabin8-WT (human) [10] | GST–Rabin8-S272A (human) [11]
